Data from article PMC12431657, “Discovery and mechanistic insights of dibenzoylmethane as a broad spectrum inhibitor of coronavirus” (PLOS Pathogens, 2025).
Where two headings read alike, the source gives them in different places. Hit rate of the full screen: of about 3,300 compounds, about 60 (2%) showed an effect of 50% or more. Some of the results follow.

Test system: HCoV-OC43
Parameters: species or system RD; HTS, protection from HCoV-OC43 induced cell death, luminescent cell viability (CellCounting-Lite 2.0), inhibition rate
Details: 24 h post infection, 1 h compound pre-incubation, 10 µM, inhibitor

C=CCc1ccc(OC)c(OC)c1 [Methyl Eugenol]
OC43 Inhibition rate: 0.2%

C=C1C(=O)O[C@@H]2CC(C)=C([C@@H](C)CCCOC(C)=O)[C@@H](O)[C@H]12 [Inulicin]
OC43 Inhibition rate: 2.8%

CC(C)=CCC[C@H](C)[C@@H]1CC[C@]2(C)C3=C(CC[C@@]12C)[C@@]1(C)CC[C@H](O)C(C)(C)[C@@H]1CC3 [Tirucallol]
OC43 Inhibition rate: 1.2%

Oc1cnc2c(O)cccc2c1 [Jineol]
OC43 Inhibition rate: -0.6%

COc1cc(C(C)=O)ccc1O[C@@H]1O[C@H](CO)[C@@H](O)[C@H](O)[C@H]1O [Androsin]
OC43 Inhibition rate: 2.2%

O[C@@H]1[C@@H](O)[C@@H]2OC[C@@H](O2)[C@H]1O [Levoglucosan]
OC43 Inhibition rate: 2.7%

COC(=O)C1=CO[C@@H](O[C@@H]2O[C@H](CO)[C@@H](O)[C@H](O)[C@H]2O)[C@H]2[C@@H]1[C@H](O)C[C@]2(C)O [Shanzhiside methyl ester]
OC43 Inhibition rate: 2.1%

COc1ccc2c(c[n+](C)c3c4cc5c(cc4ccc23)OCO5)c1OC [Chelerythrine (chloride)]
OC43 Inhibition rate: -6%

COc1cc2c(cc1O)CC[N+](C)(C)[C@@H]2Cc1ccc(O)cc1 [Lotusine (hydroxide)]
OC43 Inhibition rate: -0.6%

COc1cc(-c2coc3cc(O[C@@H]4O[C@H](CO)[C@@H](O)[C@H](O)[C@H]4O)c(OC)c(O)c3c2=O)cc(O)c1OC [Iridin]
OC43 Inhibition rate: 0.1%

C=C(C)[C@@H]1CC=C(CO)CC1 [(S)-(−)-Perillyl alcohol]
OC43 Inhibition rate (OC43 Inhibition rate, 24 h): -0.5%

CNc1ccc2oc(C[C@H]3O[C@@]4(CC[C@H]3C)O[C@H]([C@H](C)C(=O)c3ccc[nH]3)[C@H](C)C[C@H]4C)nc2c1C(=O)O [Calcimycin]
OC43 Inhibition rate: -0.2%

CN1CC[C@]23c4ccccc4N[C@H]1[C@]21CCN(C)[C@H]3Nc2ccccc21 [Calycanthine]
OC43 Inhibition rate: 1.8%

CC(C)CCC[C@@H](C)[C@H]1CC[C@H]2C3=CC[C@H]4C[C@@H](O)CC[C@]4(C)[C@H]3CC[C@]12C [Lathosterol]
OC43 Inhibition rate: -0.2%

C[C@H]1O[C@@H](O[C@H]2CC[C@@]3(C)[C@@H](CC[C@]4(C)[C@@H]3C=CC3=C5CC(C)(C)CC[C@]5(CO)[C@@H](O)C[C@]34C)[C@]2(C)CO)[C@H](O)[C@@H](O[C@@H]2O[C@H](CO)[C@@H](O)[C@H](O)[C@H]2O)[C@H]1O [Saikosaponin B1]
OC43 Inhibition rate: 1.4%

O=C(/C=C/c1ccccc1)OC[C@H]1O[C@@H](O[C@@H]2OC=C[C@H]3[C@H](O)[C@@H]4O[C@]4(CO)[C@@H]23)[C@H](O)[C@@H](O)[C@@H]1O [Picroside I]
OC43 Inhibition rate: 2.8%
